Experimental data reported in PubChem BioAssay AID488837 (National Center for Advancing Translational Sciences (NCATS), 2010).
The campaign covered roughly 330,000 compounds. About 20 (0.006%) were called active. The shares of active, inactive and inconclusive entries below differ from those in the screen. Calls follow the shape of the dose curve; as a rule, active = well fitted inhibition curve with a large enough effect; inconclusive = small, poorly fitted or top-dose-only effect, or effect the other way; inactive = flat fitted curve, though single readings scatter. Where the call is inconclusive, the potency comes from a doubtful curve fit.

By UniProt entry, the sequences of proteins in these tests, tags left out.
UniProt O00167, whole entry, looked up: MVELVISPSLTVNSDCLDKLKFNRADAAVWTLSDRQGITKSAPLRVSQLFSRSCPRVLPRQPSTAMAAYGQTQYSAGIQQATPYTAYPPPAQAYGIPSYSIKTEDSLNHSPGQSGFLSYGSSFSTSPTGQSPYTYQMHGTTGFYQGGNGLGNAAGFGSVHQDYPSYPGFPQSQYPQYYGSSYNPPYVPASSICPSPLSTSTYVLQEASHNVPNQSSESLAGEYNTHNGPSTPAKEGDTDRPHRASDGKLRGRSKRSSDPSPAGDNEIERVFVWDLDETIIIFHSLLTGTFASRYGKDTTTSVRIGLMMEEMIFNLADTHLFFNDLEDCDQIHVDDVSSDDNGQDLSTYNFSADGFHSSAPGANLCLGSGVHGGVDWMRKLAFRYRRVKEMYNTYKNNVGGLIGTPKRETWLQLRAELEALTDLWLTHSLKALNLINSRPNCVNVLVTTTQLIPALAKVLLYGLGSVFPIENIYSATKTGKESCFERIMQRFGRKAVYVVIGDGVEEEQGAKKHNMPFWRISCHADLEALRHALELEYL

target: Protein phosphatase EYA2 (Homo sapiens) (UniProt O00167); assay: qHTS Assay for Inhibitors of the Phosphatase Activity of Eya2; conditions: recombinant Eya2, OMFP fluorescence dephosphorylation (OMFP is methylfluorescein phosphate); activity, negative = inhibition: at 76.9 µM (top of the series) unless noted
In short: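 Eya2 protein (added as 0.2 uM solution) was preincubated with compound for 10 min at ambient temperature in 50 mM HEPES pH 7.5, 50 mM NaCl, 5 uM MgCl2, 0.05% BSA, 1 mM DTT. OMFP (added at 50 uM) then reacted 10 min; fluorescence read at 485/525 nm.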
% is scaled to controls: 0 for no effect and ±100 for the full control effect; potency is read from the fitted curve at half-maximal effect.

Structure (SMILES) | activity, negative = inhibition | Potency
CCCCCC[N+](C)(C)CCSSCC[N+](C)(C)CCCCCC | inactive: 18.3% | –
COc1ccc(CNC(=S)Nc2ccc(Br)cc2)cc1 | – | inconclusive: 224 µM [inhibitor, partial curve, poor fit]
CC(C)c1ccc(/C=C2\SC(=S)N(CC(=O)NCCCN3CCOCC3)C2=O)cc1 | inactive: -24.5% | –
Cc1cnc(NC(=O)C2CC(=O)N(c3ccc4c(c3)OCCO4)C2)s1 (stereo not given) | inactive: 5.11% | –
CC1CCCC(C)N1C(=O)COC(=O)c1cc(F)c(F)cc1Cl (stereo not given) | – | inconclusive: 70.8 µM [inhibitor, partial curve, poor fit]
CCS(=O)(=O)N1CCC(C(=O)Oc2ccccc2Br)CC1 | inactive: 1.12% | –
Cc1c(OCC(F)(F)F)ccnc1CSc1nc2ccccc2[nH]1 | inactive: -8.33% | –
N=c1ccn2c(n1)O[C@H]1[C@H](O)[C@@H](CO)O[C@H]12 | – | inconclusive: 100 µM [inhibitor, single point]
Cc1ccc(S(=O)(=O)C2(S(=O)(=O)c3ccc(C)cc3)CC2)cc1 | inconclusive: -38.5% [inhibitor] | –
COc1ccc(C2CCCN2CC(O)COc2ccccc2C(C)C)cc1 (stereo not given) | – | inconclusive: 200 µM [inhibitor, partial curve]
CCn1cc(C(=O)N2CCN(c3ccc(C(C)=O)cc3)CC2)c2cc(OC)c(OC)cc2c1=O | – | inconclusive: 126 µM [inhibitor, single point]
O=c1oc2cc(OCc3ccc(F)cc3F)ccc2cc1-c1ccccn1 | inactive: -31.1% | –
CCCCc1nc(Cl)c(C#N)c2c1CCC2 | – | inconclusive: 100 µM [inhibitor, single point]
COCCCNCCC(CCC(C)C)c1ccc2c(c1)OCO2 (stereo not given) | – | inconclusive: 28.2 µM [inhibitor, partial curve]
CN(C(=O)COC(=O)COc1ccc(Cl)cc1Cl)c1c(N)n(Cc2ccccc2)c(=O)[nH]c1=O | – | inconclusive: 70.8 µM [inhibitor, single point]
C/C(N)=C(/C#N)C(=O)COC(=O)c1cc2c(s1)CCCC2 | – | inconclusive: 100 µM [inhibitor, single point]
CCc1nc2ccccc2c(C(=O)OCC(=O)C(C)(C)C)c1C | – | inconclusive: 22.4 µM [inhibitor, single point]
CC(CN(C)Cc1ccccc1)OC(=O)c1ccc2c(c1)OCCO2 (stereo not given) | – | inconclusive: 70.8 µM [inhibitor, single point]
O=C(COc1ccccc1Cl)N1CCc2ccccc2C1 | – | inconclusive: 100 µM [inhibitor, single point]
COCCn1c(SCC(=O)NC2CCCCC2C)nc2ccccc2c1=O (stereo not given) | – | inconclusive: 25.1 µM [inhibitor, single point]
O=c1[nH]c(-[n+]2ccccc2)c(/C=N/NC([S-])=Nc2ccccc2)s1 | – | inconclusive: 158 µM [activator, partial curve, poor fit]
CCN1CCn2c3c(c4cccc(C)c42)CCCC31 (stereo not given) | – | inconclusive: 22.4 µM [inhibitor, single point]
CCOC(=O)C1CCN(C2CCN(Cc3nc(-c4ccccc4)no3)CC2)CC1 | – | inconclusive: 20 µM [inhibitor, single point]
Cc1cc2nc(/C(C#N)=C\c3ccc(-c4ccccc4C(=O)O)o3)[nH]c2cc1C | – | inconclusive: 79.4 µM [activator, partial curve]

Structure (SMILES) | activity, negative = inhibition | Potency
CCOC(=O)/C(C#N)=C/c1c(Oc2cccc(C)c2)nc2ccccn2c1=O | – | inconclusive: 1780 µM [inhibitor, partial curve, poor fit]
Cc1ccccc1C(=O)NC1CCCCCCC1 | – | inconclusive: 100 µM [inhibitor, single point]
CCCCCCCCCCCCCCCCCCOC[C@H](COP(=O)([O-])OCC[N+](C)(C)C)OC | – | active: 25.1 µM
COc1ccccc1N1CCN(C(=O)/C=C/c2cccc([N+](=O)[O-])c2)CC1 | – | inconclusive: 79.4 µM [inhibitor, single point]
CS(=O)(=O)c1ccccc1C(=O)Nc1ccccc1Cc1ccccc1 | – | inconclusive: 22.4 µM [inhibitor, single point]
Cc1c2c(nc3ccccc13)CCC(C)C2 (stereo not given) | – | inconclusive: 100 µM [inhibitor, single point]
O=C(C1CCN(S(=O)(=O)c2ccccc2)CC1)N1CCc2ccccc21 | – | inconclusive: 31.6 µM [activator, partial curve]
CCOC(=O)C1=NOC2C(=O)N(c3ccc(Cl)cc3Cl)C(=O)C12 (stereo not given) | – | inconclusive: 20 µM [inhibitor, single point]
COc1cc(CNc2ccc(O)cc2)cc(Br)c1OCc1ccccc1 | inactive: -12.8% | –
CC1(C)CC2CC(C)(CN2C(=S)Nc2ccccc2)C1 (stereo not given) | – | inconclusive: 20 µM [inhibitor, single point]
O=C(NC(=S)NCCN1CCOCC1)c1ccc(Cl)cc1Cl | – | inconclusive: 20 µM [inhibitor, single point]
CC(=O)c1ccc(NC(=O)CN(c2c(C)cccc2C)S(C)(=O)=O)cc1 | – | inconclusive: 100 µM [inhibitor, single point]
CCN(CC)C(=O)c1ccccc1NC(=O)c1ccccc1C | – | inconclusive: 178 µM [inhibitor, single point]
COCC(CN1CCN(C2=NS(=O)(=O)c3ccccc32)CC1)OC(=O)c1ccccc1 (stereo not given) | – | inconclusive: 89.1 µM [inhibitor, single point]
OCc1ncccc1O | – | inconclusive: 100 µM [inhibitor, single point]
CCCCCCCCNCCS(=O)(=O)NN1CCOCC1 | – | inconclusive: 14.1 µM [inhibitor, single point]
CSc1nc2ccccc2cc1/C=C(\C#N)c1cccc(C)c1 | – | inconclusive: 28.2 µM [inhibitor, single point]
CCCOc1nc2c(c(=O)n(C)c(=O)n2C)n1C | – | inconclusive: 22.4 µM [inhibitor, single point]
COc1ccc(OC)c(NS(=O)(=O)c2cccc3cccnc23)c1 | – | inconclusive: 31.6 µM [inhibitor, single point]
OCC1(CO)COC(CCc2ccccc2)=N1 | – | inconclusive: 25.1 µM [inhibitor, single point]
N#CC(C#N)=C1C=C2C=C(N3CCCCC3)CCC2CC1 (stereo not given) | – | inconclusive: 25.1 µM [activator, partial curve]
O=C(O)C1Nc2ccc(Br)cc2C2C=CCC12 (stereo not given) | inactive: 4.51% | –
CN(CC1CCOCC1)C(=O)CC1C(=O)NCCN1Cc1ccc(Cl)c(F)c1 (stereo not given) | – | inconclusive: 22.4 µM [inhibitor, single point]
O=c1ccc(/C=C/c2ccccc2)nn1Cc1ccccc1Cl | inactive: -8.26% | –

Structure (SMILES) | activity, negative = inhibition | Potency
OCCC1CN(Cc2cnc(-c3ccccc3)s2)CCN1Cc1ccccc1 (stereo not given) | – | inconclusive: 22.4 µM [inhibitor, single point]
COc1ccc2nc3cccc(OC)c3nc2c1 | – | inconclusive: 28.2 µM [inhibitor, single point]
Cc1ccc(Nc2nc(N)c([N+](=O)[O-])c(NCc3ccccc3)n2)cc1 | – | inconclusive: 100 µM [inhibitor, single point]
COC(C[C@H]1O[C@H]1[C@@H](O)[C@H](C)OCc1ccccc1)OC | – | inconclusive: 25.1 µM [inhibitor, single point]
Cc1ccc(NC(=S)NC2CC3CCC(C2)N3Cc2ccco2)cc1C (stereo not given) | inactive: 23.4% | –
COc1ccc(NC(=O)CN2CCc3ccccc3C2)cc1OC | – | inconclusive: 100 µM [inhibitor, single point]
CC1=C(CC(=O)NCC(=O)NCC(=O)O)c2cc(F)ccc2/C1=C/c1ccc(S(C)=O)cc1 (stereo not given) | – | inconclusive: 25.1 µM [inhibitor, single point]
Cc1cc(C)c2c(N)c(C(=O)NN)sc2n1 | – | inconclusive: 100 µM [inhibitor, partial curve]
Cc1ccc(C)c(Sc2ccc(NC(=O)CCl)cc2)c1 | inactive: -10.1% | –
COc1ccc(-c2cc(C(=O)OCC(=O)NC3CC3)c3ccccc3n2)cc1OC | inactive: -10.6% | –
COC(=O)c1cc(OC)c(OC)cc1NC(=S)NC(=O)c1ccco1 | inactive: 2.09% | –
CC12C(=O)N(c3ccccc3)C(=O)C1C(c1ccccc1)N1CCCN12 (stereo not given) | – | inconclusive: 100 µM [inhibitor, single point]
O=C(/C=C/c1ccccc1)NC1CCCc2ccccc21 (stereo not given) | – | inconclusive: 39.8 µM [inhibitor, partial curve, poor fit]
COc1ccccc1NC(=O)CN1CCN(CC(=O)Nc2ccc(C)c(F)c2)CC1 | – | inconclusive: 31.6 µM [inhibitor, partial curve]
COc1cc(OC)cc(-c2c(-c3cccs3)c3cc(-c4ccc(OC)c(OC)c4)ccc3n2C)c1 | inactive: 1.12% | –
O=S1(=O)CC(O)C(N(CCO)C(=S)Nc2ccccc2)C1 (stereo not given) | – | inconclusive: 100 µM [inhibitor, single point]
CCOc1cc2[nH]c(=O)n(CCCCCC(=O)NCc3ccco3)c(=O)c2cc1OCC | inactive: 5.47% | –
CCOc1ccc(C=Nc2cccc3ncccc23)cc1 | inactive: -1.93% | –
COc1ccc(-c2cn3c(C)c(C(=O)Nc4cccc(NC(C)=O)c4)sc3n2)cc1 | – | inconclusive: 25.1 µM [inhibitor, single point]
COc1ccc(/C=C(\C#N)C(=O)OCC(=O)N2CC(C)OC(C)C2)cc1 (stereo not given) | – | inconclusive: 20 µM [inhibitor, partial curve, poor fit]
O=C(NC1CCCCC1)C(=O)N(Cc1cccnc1)C(C(=O)NCc1ccco1)c1ccccc1 (stereo not given) | inactive: 11.3% | –
S=c1[nH]nc(Nc2cccc3ccccc23)s1 | inactive: 4.42% | –

Single records (already shown).
OCCC1CN(Cc2cnc(-c3ccccc3)s2)CCN1Cc1ccccc1 (stereo not given) is listed as Potency: inconclusive: 22.4 µM [inhibitor, single point]
O=C(/C=C/c1ccccc1)NC1CCCc2ccccc21 (stereo not given) is listed as Potency: inconclusive: 39.8 µM [inhibitor, partial curve, poor fit]
O=C(NC1CCCCC1)C(=O)N(Cc1cccnc1)C(C(=O)NCc1ccco1)c1ccccc1 (stereo not given) is listed as activity, negative = inhibition: inactive: 11.3%
COc1ccc(-c2cc(C(=O)OCC(=O)NC3CC3)c3ccccc3n2)cc1OC is listed as activity, negative = inhibition: inactive: -10.6%
